Paper PMC7042299
These are yes or no findings as the source states them, for the method shown. In cells and extracts the contact can be indirect. Some binding calls cover weakened binding; strength is not graded here. Sequences can lack the tags named with a protein.

Protein sequences, listed by entry. Tags and fused reporters are not part of them.
UniProt Q9HAU5: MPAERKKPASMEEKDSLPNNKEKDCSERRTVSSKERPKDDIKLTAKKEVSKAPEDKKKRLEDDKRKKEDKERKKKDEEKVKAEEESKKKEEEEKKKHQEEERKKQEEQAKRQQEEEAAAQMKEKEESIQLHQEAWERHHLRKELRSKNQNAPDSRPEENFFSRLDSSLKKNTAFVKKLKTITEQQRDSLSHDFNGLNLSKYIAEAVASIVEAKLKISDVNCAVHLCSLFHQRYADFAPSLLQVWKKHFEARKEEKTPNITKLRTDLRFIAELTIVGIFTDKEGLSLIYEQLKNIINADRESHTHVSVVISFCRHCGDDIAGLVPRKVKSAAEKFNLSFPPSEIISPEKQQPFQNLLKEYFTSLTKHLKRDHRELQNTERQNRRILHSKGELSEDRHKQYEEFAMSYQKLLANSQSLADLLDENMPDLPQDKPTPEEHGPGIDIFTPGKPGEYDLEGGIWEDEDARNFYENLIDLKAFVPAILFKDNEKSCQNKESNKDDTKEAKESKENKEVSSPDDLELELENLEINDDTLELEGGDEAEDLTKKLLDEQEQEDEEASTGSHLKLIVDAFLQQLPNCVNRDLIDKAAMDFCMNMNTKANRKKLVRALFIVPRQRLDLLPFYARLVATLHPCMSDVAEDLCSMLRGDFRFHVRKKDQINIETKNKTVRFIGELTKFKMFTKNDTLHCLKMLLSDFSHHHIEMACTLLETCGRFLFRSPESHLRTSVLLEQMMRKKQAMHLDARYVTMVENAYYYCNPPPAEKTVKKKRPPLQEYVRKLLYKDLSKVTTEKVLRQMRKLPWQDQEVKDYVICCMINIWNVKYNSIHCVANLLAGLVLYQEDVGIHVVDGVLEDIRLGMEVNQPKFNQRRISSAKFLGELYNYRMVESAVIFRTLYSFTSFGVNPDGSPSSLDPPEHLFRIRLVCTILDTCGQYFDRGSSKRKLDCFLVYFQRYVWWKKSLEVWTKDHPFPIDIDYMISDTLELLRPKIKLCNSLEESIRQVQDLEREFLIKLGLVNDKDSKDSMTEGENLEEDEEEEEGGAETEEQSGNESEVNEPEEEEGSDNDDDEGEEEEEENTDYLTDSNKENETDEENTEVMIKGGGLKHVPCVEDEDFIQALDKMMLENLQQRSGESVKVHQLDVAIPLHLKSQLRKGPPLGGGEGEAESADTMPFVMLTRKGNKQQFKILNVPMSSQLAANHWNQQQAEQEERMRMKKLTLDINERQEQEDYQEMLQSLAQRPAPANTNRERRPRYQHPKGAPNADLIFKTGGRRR

T1: 3XFLAG-UPF1 (pcDNA3-3XFLAG-UPF1) (UniProt Q92900)
T1 sequence: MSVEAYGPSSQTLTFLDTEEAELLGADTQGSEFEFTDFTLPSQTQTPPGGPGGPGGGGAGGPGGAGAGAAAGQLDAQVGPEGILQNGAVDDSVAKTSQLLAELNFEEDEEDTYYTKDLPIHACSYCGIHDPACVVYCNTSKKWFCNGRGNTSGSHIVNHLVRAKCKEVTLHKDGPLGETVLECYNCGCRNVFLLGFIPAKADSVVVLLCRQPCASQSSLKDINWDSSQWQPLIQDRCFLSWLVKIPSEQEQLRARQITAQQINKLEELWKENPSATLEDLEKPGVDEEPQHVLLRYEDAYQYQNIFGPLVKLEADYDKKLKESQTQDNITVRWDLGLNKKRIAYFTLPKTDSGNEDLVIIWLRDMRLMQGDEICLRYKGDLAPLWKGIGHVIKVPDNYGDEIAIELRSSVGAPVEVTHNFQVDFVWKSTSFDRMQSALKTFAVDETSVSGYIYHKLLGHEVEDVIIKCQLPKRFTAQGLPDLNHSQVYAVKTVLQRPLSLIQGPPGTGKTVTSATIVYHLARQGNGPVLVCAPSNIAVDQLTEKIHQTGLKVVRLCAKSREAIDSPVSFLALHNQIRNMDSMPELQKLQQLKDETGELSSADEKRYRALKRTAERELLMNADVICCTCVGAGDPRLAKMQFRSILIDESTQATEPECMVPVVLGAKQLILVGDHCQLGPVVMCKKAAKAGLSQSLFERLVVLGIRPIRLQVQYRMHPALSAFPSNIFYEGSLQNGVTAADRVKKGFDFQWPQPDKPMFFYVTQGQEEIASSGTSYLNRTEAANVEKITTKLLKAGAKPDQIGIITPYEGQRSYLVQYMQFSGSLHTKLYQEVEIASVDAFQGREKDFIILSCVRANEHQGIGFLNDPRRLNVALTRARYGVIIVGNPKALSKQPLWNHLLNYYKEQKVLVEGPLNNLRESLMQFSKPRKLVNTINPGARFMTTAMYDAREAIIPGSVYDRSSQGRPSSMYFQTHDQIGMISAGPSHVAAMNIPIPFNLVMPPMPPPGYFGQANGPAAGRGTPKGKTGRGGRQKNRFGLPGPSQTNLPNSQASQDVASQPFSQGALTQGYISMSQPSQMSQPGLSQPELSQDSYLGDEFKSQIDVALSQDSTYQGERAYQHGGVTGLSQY

B1: UPF3B (protein, UniProt Q9BZI7 1-483)
chain: MKEEKEHRPKEKRVTLLTPAGATGSGGGTSGDSSKGEDKQDRNKEKKEALSKVVIRRLPPTLTKEQLQEHLQPMPEHDYFEFFSNDTSLYPHMYARAYINFKNQEDIILFRDRFDGYVFLDNKGQEYPAIVEFAPFQKAAKKKTKKRDTKVGTIDDDPEYRKFLESYATDNEKMTSTPETLLEEIEAKNRELIAKKTTPLLSFLKNKQRMREEKREERRRREIERKRQREEERRKWKEEEKRKRKDIEKLKKIDRIPERDKLKDEPKIKVHRFLLQAVNQKNLLKKPEKGDEKELDKREKAKKLDKENLSDERASGQSCTLPKRSDSELKDEKPKRPEDESGRDYREREREYERDQERILRERERLKRQEEERRRQKERYEKEKTFKRKEEEMKKEKDTLRDKGKKAESTESIGSSEKTEKKEEVVKRDRIRNKDRPAMQLYQPGARSRNRLCPPDDSTKSGDSAAERKQESGISHRKEGGEE

Target: T1, 3XFLAG-UPF1 (pcDNA3-3XFLAG-UPF1)
Assay: co-IP; HEK293T cells depleted of DHX34 by siRNA, transfected with 3XFLAG-UPF1 and siRNA-resistant wild-type or variant T7-DHX34; immunoprecipitation on Anti-FLAG M2 Affinity Gel, blots with anti-UPF2 and anti-UPF3B

Molecule | binding
UPF2 (from UniProt Q9HAU5 1-1272) | binds
B1 | binds
